Measured values published in patent US4764433A, “Agent for the protection of materials” (Bayer Aktiengesellschaft, priority 1985, dated 1988).
The name of at least one read-out is uncertain.

What was measured:
Polyporus versicolor = experiment: Limiting toxic values (toxicity limits) on beechwood; conditions: 6 weeks at 21° to 23° C.; concentrations at which timber still attacked - no longer attacked
Protocol: (§1) Determination of the limiting toxic values (kg/m^3 of timber) of active compounds according to the invention for Coniophora puteana and Polyporus versicolor on pinewood and beechwood, respectively.
(§2) The limiting toxic values are determined by a method modelled on the method described by H. P. Sutter, Int. Biodeterioration Bulletin, 14 (3), 1978, pages 95 to 99.
(§3) For each test, freshly cut, thin pieces of cross-cut timber (dimensions 40×40 mm, thickness about 2 mm) are impregnated in vacuo with solutions of varying concentrations of active compounds. In each case one concentration of active compound is used to impregnate 15 timber samples simultaneously. 5 of these are in each case used at the same time for a mycological test.
(§4) The amount of active compound absorbed is determined from the retention of solvent (determined by weighing the small piece of timber before and after impregnation), the density of the timber and the concentration of the active compound in the residual impregnating solution.
(§5) Before the mycological test, the test specimens are sterilized with propylene oxide and in each case 1 test specimen is brought into contact in a Petri dish with the fully developed mycellium of the test fungus on malt extract agar. The toxicity limits are determined visually after 6 weeks at 21° to 23° C. […]

Coniophora puteana = experiment: Limiting toxic values (toxicity limits) on pinewood; conditions: 6 weeks at 21° to 23° C.; concentrations at which timber still attacked - no longer attacked
Protocol: as §1, §2, §3, §4, §5

CCN(SC(F)(Cl)Cl)S(=O)(=O)c1ccc(Cl)cc1 [Example 6]
Toxicity Limits, Polyporus versicolor on beechwood (Polyporus versicolor): < 0.22 kg/m^3 of timber
Toxicity Limits, Coniophora puteana on pinewood (Coniophora puteana): 0.24 kg/m^3 of timber
